In PMC1849891:

T1: C-terminally TAP-tagged Swm2 (S. pombe) (UniProt Q10135)
T1 sequence: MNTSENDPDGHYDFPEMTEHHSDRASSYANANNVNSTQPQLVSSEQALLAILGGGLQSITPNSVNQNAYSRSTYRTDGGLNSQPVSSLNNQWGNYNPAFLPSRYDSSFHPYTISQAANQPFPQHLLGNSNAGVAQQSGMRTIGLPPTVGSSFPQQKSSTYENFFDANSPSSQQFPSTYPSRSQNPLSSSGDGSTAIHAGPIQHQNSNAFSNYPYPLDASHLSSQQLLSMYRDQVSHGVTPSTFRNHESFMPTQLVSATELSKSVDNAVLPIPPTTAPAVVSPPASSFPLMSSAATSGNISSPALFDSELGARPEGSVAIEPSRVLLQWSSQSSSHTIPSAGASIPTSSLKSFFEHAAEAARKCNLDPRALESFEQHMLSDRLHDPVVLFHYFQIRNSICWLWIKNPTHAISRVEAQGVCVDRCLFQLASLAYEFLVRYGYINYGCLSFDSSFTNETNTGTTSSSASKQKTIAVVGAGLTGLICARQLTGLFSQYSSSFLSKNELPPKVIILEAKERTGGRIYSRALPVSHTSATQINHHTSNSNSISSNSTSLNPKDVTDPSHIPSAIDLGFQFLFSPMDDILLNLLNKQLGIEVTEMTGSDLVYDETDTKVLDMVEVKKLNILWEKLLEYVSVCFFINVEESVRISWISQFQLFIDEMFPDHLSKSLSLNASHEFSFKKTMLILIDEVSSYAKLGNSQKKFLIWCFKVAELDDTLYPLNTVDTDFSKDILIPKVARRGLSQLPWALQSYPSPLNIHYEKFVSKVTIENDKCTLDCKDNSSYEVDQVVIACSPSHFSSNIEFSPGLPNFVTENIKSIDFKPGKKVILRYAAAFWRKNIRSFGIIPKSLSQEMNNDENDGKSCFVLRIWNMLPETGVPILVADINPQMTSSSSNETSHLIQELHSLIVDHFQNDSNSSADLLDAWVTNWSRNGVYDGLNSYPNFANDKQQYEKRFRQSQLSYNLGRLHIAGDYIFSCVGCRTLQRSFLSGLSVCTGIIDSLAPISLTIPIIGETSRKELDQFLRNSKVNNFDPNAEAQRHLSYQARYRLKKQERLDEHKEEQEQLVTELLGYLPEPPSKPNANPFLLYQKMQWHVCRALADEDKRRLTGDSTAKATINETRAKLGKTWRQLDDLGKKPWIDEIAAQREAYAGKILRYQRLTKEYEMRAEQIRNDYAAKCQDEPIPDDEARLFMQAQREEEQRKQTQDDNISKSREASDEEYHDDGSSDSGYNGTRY

T2: C-terminally TAP-tagged Swm1 (S. pombe) (UniProt Q9Y802)
T2 sequence: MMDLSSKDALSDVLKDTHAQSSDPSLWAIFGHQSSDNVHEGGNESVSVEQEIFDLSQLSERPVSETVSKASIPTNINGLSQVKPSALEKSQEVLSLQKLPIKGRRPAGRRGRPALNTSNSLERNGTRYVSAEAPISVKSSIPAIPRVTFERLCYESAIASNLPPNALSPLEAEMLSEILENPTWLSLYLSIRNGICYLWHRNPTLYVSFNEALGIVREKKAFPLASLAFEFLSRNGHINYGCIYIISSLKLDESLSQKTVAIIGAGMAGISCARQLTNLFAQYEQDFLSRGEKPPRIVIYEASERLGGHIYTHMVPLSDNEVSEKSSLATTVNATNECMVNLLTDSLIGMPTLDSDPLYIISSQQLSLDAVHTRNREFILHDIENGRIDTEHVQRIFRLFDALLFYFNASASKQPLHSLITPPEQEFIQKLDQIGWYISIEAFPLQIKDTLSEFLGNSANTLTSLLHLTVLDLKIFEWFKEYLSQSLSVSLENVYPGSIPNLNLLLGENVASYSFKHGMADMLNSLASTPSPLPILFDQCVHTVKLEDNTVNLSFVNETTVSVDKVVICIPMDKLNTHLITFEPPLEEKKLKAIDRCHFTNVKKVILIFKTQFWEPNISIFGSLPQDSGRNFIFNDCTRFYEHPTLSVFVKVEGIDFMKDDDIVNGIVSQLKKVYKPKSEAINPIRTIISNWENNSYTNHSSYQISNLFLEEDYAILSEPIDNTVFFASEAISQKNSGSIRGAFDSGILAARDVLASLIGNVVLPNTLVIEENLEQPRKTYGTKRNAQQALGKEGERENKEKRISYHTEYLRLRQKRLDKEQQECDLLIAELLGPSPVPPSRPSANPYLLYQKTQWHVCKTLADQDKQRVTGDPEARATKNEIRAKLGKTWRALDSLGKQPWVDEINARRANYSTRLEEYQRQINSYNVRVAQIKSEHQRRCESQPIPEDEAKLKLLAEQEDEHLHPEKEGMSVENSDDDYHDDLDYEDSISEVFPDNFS

T3: C-terminally TAP-tagged Swm2 (S. pombe), Q10135
T3 chain: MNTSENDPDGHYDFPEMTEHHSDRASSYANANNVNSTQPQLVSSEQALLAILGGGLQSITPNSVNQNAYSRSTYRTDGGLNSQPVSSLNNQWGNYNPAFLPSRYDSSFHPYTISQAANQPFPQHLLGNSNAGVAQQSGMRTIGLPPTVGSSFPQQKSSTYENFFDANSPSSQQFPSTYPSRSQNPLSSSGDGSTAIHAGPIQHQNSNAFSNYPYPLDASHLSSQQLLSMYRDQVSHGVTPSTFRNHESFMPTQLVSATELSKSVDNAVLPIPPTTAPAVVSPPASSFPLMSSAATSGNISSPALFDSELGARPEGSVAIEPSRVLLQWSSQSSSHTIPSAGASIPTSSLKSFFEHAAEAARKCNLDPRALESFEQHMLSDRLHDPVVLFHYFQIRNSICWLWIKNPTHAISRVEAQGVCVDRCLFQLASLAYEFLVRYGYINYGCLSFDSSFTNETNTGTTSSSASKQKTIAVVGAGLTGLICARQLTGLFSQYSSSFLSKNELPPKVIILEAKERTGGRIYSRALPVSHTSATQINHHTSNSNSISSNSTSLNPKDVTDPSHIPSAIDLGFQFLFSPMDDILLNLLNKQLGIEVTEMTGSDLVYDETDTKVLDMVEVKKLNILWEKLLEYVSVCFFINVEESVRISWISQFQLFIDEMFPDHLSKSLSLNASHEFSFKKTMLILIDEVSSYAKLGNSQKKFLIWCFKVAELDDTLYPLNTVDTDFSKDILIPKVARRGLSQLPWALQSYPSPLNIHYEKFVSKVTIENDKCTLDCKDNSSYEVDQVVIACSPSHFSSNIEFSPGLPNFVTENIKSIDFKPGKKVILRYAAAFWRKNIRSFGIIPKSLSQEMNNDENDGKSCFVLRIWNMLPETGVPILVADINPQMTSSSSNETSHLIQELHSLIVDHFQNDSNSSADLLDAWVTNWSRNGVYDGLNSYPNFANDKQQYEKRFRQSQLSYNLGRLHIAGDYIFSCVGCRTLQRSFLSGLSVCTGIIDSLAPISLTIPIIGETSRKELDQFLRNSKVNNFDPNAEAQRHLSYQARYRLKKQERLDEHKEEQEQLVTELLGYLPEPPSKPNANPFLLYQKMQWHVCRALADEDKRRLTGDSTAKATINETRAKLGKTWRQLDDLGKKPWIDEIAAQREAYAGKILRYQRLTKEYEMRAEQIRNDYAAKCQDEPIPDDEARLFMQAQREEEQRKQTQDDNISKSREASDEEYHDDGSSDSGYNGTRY


Experiments:
Test in all cases: affinity purification with mass spectrometry; TAP purification from S. pombe soluble extract (20 mM HEPES pH 8.0, 150 mM NaCl, 0.1% Tween 20): IgG beads, TEV cut, calmodulin-binding beads, EGTA elution; eluate digested with trypsin and peptides identified by MS
[1] = biological target: T1, C-terminally TAP-tagged Swm2 (S. pombe)
[2] = biological target: T2, C-terminally TAP-tagged Swm1 (S. pombe)
[3] = biological target: T3, C-terminally TAP-tagged Swm2 (S. …); conditions: remark: other sources report otherwise

Row | Binder | binding [1] | binding [2] | binding [3]
1 | Swp1 (Swm associated PHD1) (protein, UniProt P87233 1-461) MSQKNFFDEGKSYGVNDYAGFHFENGADSSLPQVSAQGVVRETDSSNFDASPVASGSGISDVGPFGADFHQLQQHVQTPYGGMTMPASSSSGATSVPPEQDPSLSVSFNRLPKSASTKTKNGRIRSSRREDDNRIPFYDLDVAEGAEDDLQEDFHVEGMKTKSGRKIQRPVAYNPNATALKRKSRKVDMVTLCSVCQRGHSPLSNRIVFCDGCNSPYHQLCHHPPIDDATVQDVDAEWFCMKCQYRRAKQPLETGMTAQDLGLSESDKKMYLSSLPTPHLADLILFCEKSYPSLPIYNPRTRELLGEIRHQLLVSSERQQISLQERLHAKQDEAPSDEPAPVPYTASYVANSGTLYDYPTLIRLAIRNTLSPSKDEIFNWLAQNVPLLPTFHDSASEAIRWMVNKGQLVRSGSIYQIATVEEYPHLQPSLLPTFQRNRKVPKLVPVSFPTDDPQNLCATVL | binds | binds | 
2 | Swp2 (Swm associated PHD2) (protein, UniProt Q09908 1-538) MPNSSYYDDDGGSFEAASYPFQFDGSRRFPNDLHPTMFEGEESNQNGGSVLIDQAFQDIQNPNVNSNMHLENQFQHFHEPNKESGAFGSYKNDDVAKEIESSKNQETDAKSEQAPFTEDASSSNYAHHRSADSQTKSALPPNVPASSSPLPPMSIAMNIARKRSWPASLAIERDNTADALFSTEDGREEQFNLEGVKTKSGRKVHRPNHFDPLVKLPTRRRGPGRRPVVALAMKCSVCQRLQSPPKNRIVFCDGCNTPFHQLCHEPYISDELLDSPNGEWFCDDCIRRKKQAPLVTGTTARELNLSSEEKKSYLLSLPISQLVDILLFCEQLHPDIPFYSPKTSTIVQELQSKRSAFTATMNEPVTGDQYLSLNNGTESQSKTTKHSTSLPSTEPVEVDKQYMESEKIPTIDEYLQEYSNEDEIVLQVLESFPAAVSFSTITNTIQAKYSNRKIKNSNITRSLNRLVRKNRVLRDARGSSYELNRTFDADRPSVRPDISITGPIPIDWMLYTPHTEDLTENFCTYYMFDETPIVLSSI | no binding | binds | 
3 | Swm1, Q9Y802 1-1000 (protein) MMDLSSKDALSDVLKDTHAQSSDPSLWAIFGHQSSDNVHEGGNESVSVEQEIFDLSQLSERPVSETVSKASIPTNINGLSQVKPSALEKSQEVLSLQKLPIKGRRPAGRRGRPALNTSNSLERNGTRYVSAEAPISVKSSIPAIPRVTFERLCYESAIASNLPPNALSPLEAEMLSEILENPTWLSLYLSIRNGICYLWHRNPTLYVSFNEALGIVREKKAFPLASLAFEFLSRNGHINYGCIYIISSLKLDESLSQKTVAIIGAGMAGISCARQLTNLFAQYEQDFLSRGEKPPRIVIYEASERLGGHIYTHMVPLSDNEVSEKSSLATTVNATNECMVNLLTDSLIGMPTLDSDPLYIISSQQLSLDAVHTRNREFILHDIENGRIDTEHVQRIFRLFDALLFYFNASASKQPLHSLITPPEQEFIQKLDQIGWYISIEAFPLQIKDTLSEFLGNSANTLTSLLHLTVLDLKIFEWFKEYLSQSLSVSLENVYPGSIPNLNLLLGENVASYSFKHGMADMLNSLASTPSPLPILFDQCVHTVKLEDNTVNLSFVNETTVSVDKVVICIPMDKLNTHLITFEPPLEEKKLKAIDRCHFTNVKKVILIFKTQFWEPNISIFGSLPQDSGRNFIFNDCTRFYEHPTLSVFVKVEGIDFMKDDDIVNGIVSQLKKVYKPKSEAINPIRTIISNWENNSYTNHSSYQISNLFLEEDYAILSEPIDNTVFFASEAISQKNSGSIRGAFDSGILAARDVLASLIGNVVLPNTLVIEENLEQPRKTYGTKRNAQQALGKEGERENKEKRISYHTEYLRLRQKRLDKEQQECDLLIAELLGPSPVPPSRPSANPYLLYQKTQWHVCKTLADQDKQRVTGDPEARATKNEIRAKLGKTWRALDSLGKQPWVDEINARRANYSTRLEEYQRQINSYNVRVAQIKSEHQRRCESQPIPEDEAKLKLLAEQEDEHLHPEKEGMSVENSDDDYHDDLDYEDSISEVFPDNFS |  |  | binds

These are yes or no findings as the source states them, for the method shown. In cells and extracts the contact can be indirect. Here binding means that the protein was enriched with, or labelled near, the bait; the list need not be complete. For some assays here: No binding means not detected with the bait. Where a sequence is shown, tags or fusion partners need not be part of it.
